Experimental data reported in US20040248901A1, “Compositions containing itraconazole and their preparation methods” (priority 2001, published 2004).
For at least one compound, name, drawing or mass did not settle the structure.

Columns and labels:
[1] = Dissolution rate of itraconazole in artificial intestinal juice (paddle method); assay type: physicochemical; details: Table 3, 100 mg of itraconazole
[2] = Dissolution rate of itraconazole in artificial gastric juice (paddle method); assay type: physicochemical; details: Table 2, 100 mg of itraconazole

For `CCC(C)n1ncn(-c2ccc(N3CCN(c4ccc(OCC5COC(Cn6cncn6)(c6ccc(Cl)cc6Cl)O5)cc4)CC3)cc2)c1=O` (mixture of isomers) [itraconazole, (±)-cis-4-[4-[4-[4-[[2-(2,4-dichlorophenyl)-2-(1H-1,2,4-triazol-1-ylmethyloxolan-4-yl]methoxy]phenyl]-1-piperazinyl]phenyl]-2,4-dihydro-2-(1-methylpropyl)-3H-1,2,4-triazol-3-one], the “Dissolution rates (%) in artificial interstinal juice” value ([1]; 0.25 hr) was 0.655%, the “Dissolution rates (%) in artificial interstinal juice” value ([1]; 0.5 hr) was 0.819% and the “Dissolution rates (%) in artificial interstinal juice” value ([1]; 1 hr) was 0.708%. For the same molecule, the “Dissolution rates (%) in artificial interstinal juice” value ([1]; 1.5 hr) was 1.582%, the “Dissolution rates (%) in artificial interstinal juice” value ([1]; 2 hr) was 1.496% and the “Dissolution rates (%) in artificial interstinal juice” value ([1]; 4 hr) was 1.521%. For the same molecule, the “Dissolution rates (%) in artificial gastric juice” value ([2]; 0.25 hr) was 0.753%, the “Dissolution rates (%) in artificial gastric juice” value ([2]; 0.5 hr) was 1.879% and the “Dissolution rates (%) in artificial gastric juice” value ([2]; 1 hr) was 1.965%. For the same molecule, the “Dissolution rates (%) in artificial gastric juice” value ([2]; 1.5 hr) was 1.974%, the “Dissolution rates (%) in artificial gastric juice” value ([2]; 2 hr) was 1.948% and the “Dissolution rates (%) in artificial gastric juice” value ([2]; 3 hr) was 2.044%.
